Measured values from article PMC7594305.
These are yes or no findings as the source states them, for the method shown. In cells and extracts the contact can be indirect. Some results given as binding are weak or reduced against the parent protein; the word gives no strength.

The chains behind the UniProt entries cited, without tags or fusion partners.
UniProt P23242: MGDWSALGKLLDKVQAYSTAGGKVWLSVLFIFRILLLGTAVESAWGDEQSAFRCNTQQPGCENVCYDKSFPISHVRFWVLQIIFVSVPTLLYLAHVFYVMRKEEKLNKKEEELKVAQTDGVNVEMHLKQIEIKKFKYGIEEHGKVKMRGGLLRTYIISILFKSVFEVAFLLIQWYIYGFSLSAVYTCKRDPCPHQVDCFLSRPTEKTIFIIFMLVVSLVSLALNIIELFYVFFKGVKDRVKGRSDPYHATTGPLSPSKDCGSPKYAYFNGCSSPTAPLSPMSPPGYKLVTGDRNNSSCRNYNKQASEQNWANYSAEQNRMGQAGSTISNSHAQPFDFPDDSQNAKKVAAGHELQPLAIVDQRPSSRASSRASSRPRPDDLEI
UniProt P46938: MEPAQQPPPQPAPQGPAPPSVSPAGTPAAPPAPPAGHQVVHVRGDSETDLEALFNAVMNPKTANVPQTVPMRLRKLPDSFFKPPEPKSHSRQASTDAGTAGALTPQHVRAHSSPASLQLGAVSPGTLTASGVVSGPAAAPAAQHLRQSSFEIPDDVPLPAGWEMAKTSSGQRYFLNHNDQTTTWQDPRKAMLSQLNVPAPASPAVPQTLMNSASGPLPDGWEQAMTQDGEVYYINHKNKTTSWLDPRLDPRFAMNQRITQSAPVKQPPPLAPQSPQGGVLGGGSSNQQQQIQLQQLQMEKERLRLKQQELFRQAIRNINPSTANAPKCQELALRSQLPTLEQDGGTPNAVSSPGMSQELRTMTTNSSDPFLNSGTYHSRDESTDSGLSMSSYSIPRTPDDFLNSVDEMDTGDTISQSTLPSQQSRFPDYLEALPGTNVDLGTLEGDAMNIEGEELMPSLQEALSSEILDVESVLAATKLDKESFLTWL

Experiments:
[1] = target: connexin 43 (mouse (endogenous in primary astrocytes)) (UniProt P23242); test: co-IP; cytoplasmic proteins of hemin-stimulated primary astrocytes; anti-Cx43 or anti-YAP antibody overnight at 4 °C, protein A agarose; Western blot; with or without Gap19 treatment of the cells
[2] = target: connexin 43 (mouse (endogenous in primary astrocytes)) (UniProt P23242); test: proximity ligation; Duolink in situ PLA on astrocytes on glass slides, anti-YAP and anti-Cx43 primary antibodies; hemin stimulation, Lv-Cx43 overexpression, with or without Gap19 treatment
[3] = target: Cx43 overexpressed by lentiviral vector (Lv-Cx43) (UniProt P23242); test: as above

Measured: binding

Yes-associated protein (from UniProt P46938 1-488)
binds: all assays above
